Measured values from PubChem BioAssay AID1347076 (National Center for Advancing Translational Sciences (NCATS), 2019).
Hit rate of the full screen: of about 400,000 compounds, about 13,000 (3.2%) were called active. Inconclusive means that the source gave no clear call. Such entries were picked first, then a sample of the others. The call rests on the fitted dose curve; in most records, active means well fitted cell-killing curve with a large enough effect; inconclusive means small, poorly fitted or top-dose-only effect, or effect the other way; inactive means flat fitted curve, though single readings scatter. Potencies beside an inconclusive call are fits to weak or partial responses and may not hold up.

Experiment: qHTS assay for MDR1-selective chemotherapeutics: Primary screen using the drug-selected MDR subline cells KB-V1; further: nearly all actives have a fitted effect of over 60% in size
Conditions: KB-V1 MDR cells viability, CellTiter-Glo, 72 h; activity change, negative = cytotoxicity: at 46.1 µM (top of the series)
Outline: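 Potencies derive from concentration-effect curves fitted to normalized luminescence (CellTiter-Glo) of KB-V1 cells treated for 72 h at 37 degrees C in phenol-red-free DMEM containing 10% FBS.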
On the % scale 0 is the no-effect control and ±100 the full control effect; potency means the concentration at half of the fitted maximal effect.

SMILES | Potency | activity change, negative = cytotoxicity
COc1cc(Cl)c(C)cc1NC(=O)CSc1nnc(-c2ccco2)n1CC(C)C | active: 4.11 µM | 
COc1cc2c(cc1OC)C1=C(C#N)CC/C(=N\S(=O)(=O)c3cccc(Cl)c3)N1CC2 | active: 16.4 µM | 
Clc1ccc(/C(Cc2nc3ccccc3[nH]2)=N\Nc2ccccc2)cc1 | inconclusive: 29.1 µM [cytotoxic, single point] | 
CCc1ccc([C@H]2[C@@H]3C(=O)C[C@@H]4C(=O)NC(=O)[C@@H]4[C@@H]3CN2S(=O)(=O)c2ccc(C)cc2)cc1 | inactive | 
Cc1ccc(NC(=O)CSc2nc3ccccc3c(=O)n2CCCN2CCCCC2)cc1C | inconclusive: 18.4 µM [cytotoxic, single point] | 
COc1ccc(CNC(=O)C/C(C)=N/NC(=O)Cc2ccc(OC)c(OC)c2)cc1 | inactive | 
CCC(CC)NC(=O)c1cccc(Br)c1 | inconclusive: 0.731 µM [cytotoxic, full curve, poor fit] | 
O=C(c1cccc(S(=O)(=O)N2CCCCC2)c1)N(CCc1ccccc1)Cc1ccccc1 | inconclusive: 8.2 µM [cytotoxic, partial curve] | 
COc1cc(OC)c2ccc(=O)oc2c1C(CC(=O)N1CCCC1)c1ccc(N(C)C)cc1 (centres undefined) | inconclusive: 0.58 µM [cytotoxic, full curve] | 
CCOC(=O)N1CCN(c2c(NCCCN(CC)c3cccc(C)c3)c(=O)c2=O)CC1 | inconclusive: 4.11 µM [cytotoxic, full curve, poor fit] | 
CCCCCC(=O)NNC(=O)c1c(O)c2ccccc2n(CC)c1=O | active: 23.1 µM | 
CC(=O)Nc1nc2ccccc2n1Cc1ccccc1Cl | inconclusive: 14.6 µM [cytotoxic, partial curve, poor fit] | 
O=C(NCCN1CCOCC1)c1ccc2ccccc2n1 | inactive | 
COc1ccccc1N(CC(=O)Nc1ccccc1C)S(C)(=O)=O | inactive | 
O=C(COC(=O)CSc1ccc(Br)cc1)NCc1ccco1 | inconclusive: 2.59 µM [rising, full curve, poor fit] | 
CC(C)CNC(=O)c1ccc2c(c1)C(=O)N(Cc1ccco1)C2=O | inconclusive: 8.2 µM [rising, partial curve] | 
CCN(CC)S(=O)(=O)c1ccc(OC)c(NC(=O)c2ccc(OC)c([N+](=O)[O-])c2)c1 | inconclusive: 8.2 µM [cytotoxic, partial curve, poor fit] | 
O=[N+]([O-])c1cccc(-c2noc(COc3ccccc3)n2)c1 | inconclusive: 0.366 µM [rising, full curve, poor fit] | 
Cc1cccnc1NC(=O)c1ccc2c(c1)OCO2 |  | inconclusive: 43.5%
Cc1c(C(=O)N(Cc2ccccc2F)C2CCS(=O)(=O)C2)oc2ccc(F)cc12 (centres undefined) | inactive | 
CC(C)(C)c1ccc(OCCNC(=O)Cc2ccc(F)cc2)cc1 | inconclusive: 29.1 µM [cytotoxic, single point] | 
CC(=O)N1N=C(c2ccc3ccccc3c2)OC1(C)C | active: 18.4 µM | 
CCOC(=O)[C@]12CCCC=C1N(Cc1ccccc1)C(=O)[C@H](CC(=O)N1CCCC1)C2 | inconclusive: 2.59 µM [cytotoxic, full curve] | 

As entered above.
Under Potency, COc1ccccc1N(CC(=O)Nc1ccccc1C)S(C)(=O)=O has inactive
Under Potency, COc1ccc(CNC(=O)C/C(C)=N/NC(=O)Cc2ccc(OC)c(OC)c2)cc1 has inactive
Under Potency, O=C(COC(=O)CSc1ccc(Br)cc1)NCc1ccco1 has inconclusive: 2.59 µM [rising, full curve, poor fit]
Under activity change, negative = cytotoxicity, Cc1cccnc1NC(=O)c1ccc2c(c1)OCO2 has inconclusive: 43.5%
Under Potency, COc1cc2c(cc1OC)C1=C(C#N)CC/C(=N\S(=O)(=O)c3cccc(Cl)c3)N1CC2 has active: 16.4 µM
Under Potency, Cc1ccc(NC(=O)CSc2nc3ccccc3c(=O)n2CCCN2CCCCC2)cc1C has inconclusive: 18.4 µM [cytotoxic, single point]

The listing continues:

SMILES | Potency | activity change, negative = cytotoxicity
C=Cc1ccc(Cn2c(C)c(CNCc3cccc(Br)c3)c(C(=O)O)c2C)cc1 | inactive | 
O=C(N/C(=C/c1cccnc1)C(=O)N1CCCCCC1)c1cccc(Br)c1 | inconclusive: 18.4 µM [cytotoxic, single point] | 
C[C@@H]1CN([C@H](C)CO)S(=O)(=O)c2ccc(C#CCN(C)C)cc2O[C@@H]1CN(C)Cc1ccccc1F | inactive | 
C/C(=N\N=C(N)N)c1cc(Cl)ccc1Cl | inactive | 
COc1ccccc1/C=C1\CCCC2=C1Nc1nnnn1C2c1ccccc1OC (centres undefined) | active: 8.2 µM | 
Cc1ccccc1NC(=O)C1CCN(c2cc(-c3ccccc3)nc3ncnn23)CC1 | inactive | 
O=C(CN(C(=O)c1csnn1)c1cccc(Cl)c1)NCCc1ccccc1 | inconclusive: 8.2 µM [cytotoxic, partial curve] | 
O=C(O)CCSc1ccc([N+](=O)[O-])cc1[N+](=O)[O-] | inconclusive: 29.1 µM [cytotoxic, single point] | 
FC(F)(F)c1cccc(NC(=S)NCc2ccc(Cl)cc2)c1 | inconclusive: 23.1 µM [cytotoxic, single point] | 
O=C(O)CCC(=O)Nc1nnc(C(F)(F)F)s1 | inconclusive: 29.1 µM [rising, single point] | 
COC(=O)c1ccc(OC(=O)c2cccnc2)cc1 |  | inconclusive: -1.38%
CCCCN(CC)C(=S)Nc1ccc2nc3n(c(=O)c2c1)CCCCC3 | inconclusive: 9.2 µM [cytotoxic, partial curve, poor fit] | 
COc1ccc(S(=O)(=O)N2CCCN(S(=O)(=O)c3ccc(OC)cc3C)CC2)c(C)c1 | inconclusive: 23.1 µM [cytotoxic, single point] | 
COc1ccc(C(C)NC(=S)NCc2ccc(F)cc2)cc1OC (centres undefined) | inconclusive: 14.6 µM [cytotoxic, partial curve] | 
CCc1ccc(C2c3[nH]c4ccccc4c3CCN2C(=O)c2cc(C)nn2C)cc1 (centres undefined) | inconclusive: 20.6 µM [cytotoxic, partial curve, poor fit] | 
COC(=O)c1ccc(OCC2c3cc(OC)c(OC)cc3CCN2C(=O)COc2ccc(Cl)cc2)cc1 (centres undefined) | inactive | 
Cc1c(-c2cccc(Cl)c2)nc2ccccc2c1C(=O)OCC(=O)Nc1ccc2c(c1)OCO2 | inconclusive: 23.1 µM [cytotoxic, single point] | 
S=C(NCCN1CCOCC1)Nc1cccc(Cl)c1 | inconclusive: 10.3 µM [rising, partial curve, poor fit] | 
CCn1cc(/C=C/C(=O)Nc2ccn(Cc3c(F)c(F)c(F)c(F)c3F)n2)cn1 | inconclusive: 9.2 µM [cytotoxic, partial curve, poor fit] | 
COc1ccc(Cl)cc1NC(=O)COC(=O)CCNS(=O)(=O)c1cccs1 | inconclusive: 18.4 µM [rising, single point] | 
O=S1(=O)c2cccc3cccc(c23)N1CCBr | inconclusive: 23.1 µM [cytotoxic, single point] | 
CCCN(CC(=O)Nc1ccc(C(C)=O)cc1)CC(=O)Nc1ccccc1C | inconclusive: 29.1 µM [cytotoxic, single point] | 
Cc1cc2[nH]cnc2c([N+](=O)[O-])c1C | inactive | 

SMILES | Potency | activity change, negative = cytotoxicity
O=C(O)c1cccc(Nc2nc3ccccc3nc2NS(=O)(=O)c2cccs2)c1 | inconclusive: 29.1 µM [cytotoxic, single point] | 
Cc1cc2c(cc1C)NC(=O)CC(c1ccccc1)=N2 | inconclusive: 18.4 µM [cytotoxic, partial curve, poor fit] | 
CCN(C(=O)C1CCN(S(=O)(=O)c2ccc3c(c2)CCCN3C(C)=O)CC1)c1cccc(C)c1 | inactive | 
CCOc1ccc(-c2nnc(-c3cccs3)o2)cc1OCC | inconclusive: 16.4 µM [cytotoxic, partial curve] | 
CN(CC(=O)NCc1cccnc1)S(=O)(=O)c1ccccc1 | inconclusive: 18.4 µM [rising, single point] | 
CC(=O)c1cccc(NC(=O)CSc2nc(C3CC3)nc3ccccc23)c1 | inconclusive: 16.4 µM [cytotoxic, single point] | 
CCOc1ccc(-c2cccc(NS(=O)(=O)c3c(C)cc(C)cc3C)c2)nn1 | inconclusive: 18.4 µM [cytotoxic, partial curve, poor fit] | 
CC(C)CN1C(=O)c2ccc(C(=O)NCc3ccccn3)cc2C1=O | inconclusive: 18.4 µM [rising, single point] | 
Cc1ccc(C(C#N)c2ccc(C(=O)c3ccc(F)cc3)cc2)cc1 (centres undefined) | inactive | 
COc1ccnc(N=CNOCc2ccc(C)cc2)c1C#N | inactive | 
[O-][n+]1onc2c1CCc1c-2nn(-c2ccccc2Cl)[n+]1[O-] | inconclusive: 25.9 µM [cytotoxic, single point] | 
CS(=O)(=O)N1CCC(C(=O)Nc2cccc(Br)c2)CC1 | inactive | 
Cc1cc(NC(=O)CCNS(=O)(=O)c2ccc3[nH]c(=O)oc3c2)ccc1Br | inconclusive: 14.6 µM [rising, partial curve] | 
Cc1cccc(/C=C(\c2nc3ccccc3[nH]2)S(=O)(=O)c2ccccc2)c1 | active: 18.4 µM | 
Cc1ccc2[nH]c3c(=S)nc[nH]c3c2c1 | inconclusive: 25.9 µM [cytotoxic, single point] | 
CC(C)CCN(C(=O)CNC(=O)c1cccs1)C(C(=O)NC1CCCC1)c1ccncc1 (centres undefined) | inconclusive: 0.231 µM [rising, full curve] | 
Cc1ccc(C(=O)Nc2ncnc3sc4c(c23)CCCCC4)cc1 | inconclusive: 32.6 µM [cytotoxic, partial curve, poor fit] | 
COc1ccc(OC)c(-c2nnc3n(Cc4ccc(C)cc4)c(=O)c4ccccc4n23)c1 | inactive | 
N#CCC(=O)Nc1nc(-c2ccc3c(c2)OCCO3)cs1 | inactive | 
Cc1noc(C)c1NC(=O)N1CCN(Cc2ccccc2)CC1 | inconclusive: 29.1 µM [rising, single point] | 
CCOc1ccc(/C=C2\SC(=S)N(C(C(=O)O)c3ccccc3)C2=O)cc1OC (centres undefined) | inconclusive: 0.231 µM [cytotoxic, full curve, poor fit] | 
NC(=O)CC(NC(=O)Cc1cccc2ccccc12)c1ccc(NC2CCN(Cc3ccccc3)CC2)c([N+](=O)[O-])c1 (centres undefined) | inconclusive: 20.6 µM [rising, single point] | 
COc1ccc(C(=O)N/N=C/c2sc3ccccc3c2O)cc1 | inconclusive: 0.411 µM [cytotoxic, full curve, poor fit] | 
